Laboratory results published in paper PMC7804152, “Structural basis for the multi-activity factor Rad5 in replication stress tolerance”.

Legend:
Assay in all cases: fluorescence polarization
[1] = biological target: T1, His-KlRad5 F326A (Kluyveromyces lactis) (UniProt Q6CJM4); conditions: FP: 20 mM Tris pH 7.5, 50 mM (dsDNA, KlHIRAN) or 70 mM (ssDNA) NaCl, 2 mM MgCl2, 1 nM DNA, room temp, recombinant protein, residues 163-1114, protein details: N-terminal His6, label: 5'-FAM
T1 sequence (looked up): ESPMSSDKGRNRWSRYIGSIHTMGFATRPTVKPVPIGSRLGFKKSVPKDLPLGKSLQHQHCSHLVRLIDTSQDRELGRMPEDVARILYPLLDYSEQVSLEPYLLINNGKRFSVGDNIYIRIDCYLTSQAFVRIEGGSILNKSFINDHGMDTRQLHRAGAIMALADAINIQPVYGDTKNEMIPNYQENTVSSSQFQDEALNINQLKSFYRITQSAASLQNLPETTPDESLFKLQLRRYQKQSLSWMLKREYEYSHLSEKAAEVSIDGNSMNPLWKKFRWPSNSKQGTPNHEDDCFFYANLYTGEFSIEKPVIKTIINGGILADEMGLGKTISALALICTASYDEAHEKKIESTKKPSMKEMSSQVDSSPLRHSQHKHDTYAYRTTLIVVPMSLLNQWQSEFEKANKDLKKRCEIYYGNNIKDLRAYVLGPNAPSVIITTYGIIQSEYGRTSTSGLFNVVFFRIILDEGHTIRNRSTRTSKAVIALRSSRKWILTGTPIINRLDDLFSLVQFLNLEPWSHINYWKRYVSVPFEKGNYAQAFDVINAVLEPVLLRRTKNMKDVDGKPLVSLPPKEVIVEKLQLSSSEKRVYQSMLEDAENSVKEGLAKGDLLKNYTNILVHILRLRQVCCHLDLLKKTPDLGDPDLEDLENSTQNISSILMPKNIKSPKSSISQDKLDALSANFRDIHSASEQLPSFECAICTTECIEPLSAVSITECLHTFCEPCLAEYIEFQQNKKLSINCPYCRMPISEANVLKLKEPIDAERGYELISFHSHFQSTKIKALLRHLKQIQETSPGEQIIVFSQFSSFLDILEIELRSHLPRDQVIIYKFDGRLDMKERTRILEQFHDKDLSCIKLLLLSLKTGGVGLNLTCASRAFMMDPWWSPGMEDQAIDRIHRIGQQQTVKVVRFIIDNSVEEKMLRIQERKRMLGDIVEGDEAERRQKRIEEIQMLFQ

[2] = biological target: T2, KlRad5 3RE R190E,R228E,R240E (Kluyveromyces lactis) (UniProt Q6CJM4); conditions: strongly inhibited, FP: 20 mM Tris pH 7.5, 50 mM (dsDNA, KlHIRAN) or 70 mM (ssDNA) NaCl, 2 mM MgCl2, 1 nM DNA, room temp, recombinant protein, residues 163-1114, label: 5'-FAM
T2 sequence (looked up): T1 sequence (looked up) with R28E, R66E, R78E, A164F

[3] = biological target: T3, His-KlRad5 L325A (Kluyveromyces lactis) (UniProt Q6CJM4); conditions: FP: 20 mM Tris pH 7.5, 50 mM (dsDNA, KlHIRAN) or 70 mM (ssDNA) NaCl, 2 mM MgCl2, 1 nM DNA, room temp, recombinant protein, residues 163-1114, protein details: N-terminal His6, label: 5'-FAM
T3 sequence (looked up): T1 sequence (looked up) with L163A, A164F

Measured: binding result

TTTTTTTCGTCTTCGGCAATTTTTT [S1 ssDNA, 5'-FAM]
binds more weakly: [1]; single-stranded DNA | [2]; 70 mM NaCl, single-stranded DNA | [3]; single-stranded DNA

ACCAGTGCCAGTGAT (double strand) [D2a/D2b dsDNA]
binds more weakly: [1] | [2]; 50 mM NaCl | [3]

Residue numbers refer to the chain shown, from its start. A weaker result is weaker than the reference pair of the same experiment. Where a protein sequence is shown, tags need not be part of it. For part of these data: Construct, isoform or probe ends are uncertain for at least one entry. For part of these data: At least one verdict rests on a figure or table, not on a statement of the authors.
